We go through one molecule from publication doi:10.1101/2021.07.21.453268 (bioRxiv, 2021).

In this experiment the target is T1, 3HA-Atg13 (S. cerevisiae, UniProt Q06628 1-738, hyper-phosphorylated (sites not given)).
T1 sequence (looked up): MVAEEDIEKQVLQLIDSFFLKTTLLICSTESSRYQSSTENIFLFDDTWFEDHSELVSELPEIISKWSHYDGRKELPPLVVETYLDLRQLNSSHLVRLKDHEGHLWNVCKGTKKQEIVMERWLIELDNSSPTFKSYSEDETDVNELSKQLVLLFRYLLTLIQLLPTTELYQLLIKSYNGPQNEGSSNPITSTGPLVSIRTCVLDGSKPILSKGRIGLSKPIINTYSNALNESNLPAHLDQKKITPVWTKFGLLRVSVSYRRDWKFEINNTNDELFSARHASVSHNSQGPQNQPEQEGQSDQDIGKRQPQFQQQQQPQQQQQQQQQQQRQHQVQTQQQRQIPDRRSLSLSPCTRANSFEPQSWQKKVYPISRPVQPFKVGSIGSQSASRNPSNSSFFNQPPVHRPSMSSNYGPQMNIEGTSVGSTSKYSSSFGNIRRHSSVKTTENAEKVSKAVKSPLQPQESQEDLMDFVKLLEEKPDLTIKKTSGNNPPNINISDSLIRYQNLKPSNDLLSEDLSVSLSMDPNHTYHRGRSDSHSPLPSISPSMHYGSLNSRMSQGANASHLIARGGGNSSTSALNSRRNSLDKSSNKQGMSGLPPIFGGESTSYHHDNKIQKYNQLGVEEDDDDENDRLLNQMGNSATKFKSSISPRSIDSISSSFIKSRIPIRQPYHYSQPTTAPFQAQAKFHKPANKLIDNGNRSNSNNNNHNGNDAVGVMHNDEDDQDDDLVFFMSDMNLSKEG
Put plainly: pull-down.

Results are given in words; binding and its absence hold for the method and conditions named. Tags and fused reporters may be left off the sequences shown.

B1: 6His-3FLAG-Cdc14 (enzyme, UniProt Q00684 1-551)
chain: MRRSVYLDNTIEFLRGRVYLGAYDYTPEDTDELVFFTVEDAIFYNSFHLDFGPMNIGHLYRFAVIFHEILNDPENANKAVVFYSSASTRQRANAACMLCCYMILVQAWTPHQVLQPLAQVDPPFMPFRDAGYSNADFEITIQDVVYGVWRAKEKGLIDLHSFNLESYEKYEHVEFGDFNVLTPDFIAFASPQEDHPKGYLATKSSHLNQPFKSVLNFFANNNVQLVVRLNSHLYNKKHFEDIGIQHLDLIFEDGTCPDLSIVKNFVGAAETIIKRGGKIAVHCKAGLGRTGCLIGAHLIYTYGFTANECIGFLRFIRPGMVVGPQQHWLYLHQNDFREWKYTTRISLKPSEAIGGLYPLISLEEYRLQKKKLKDDKRVAQNNIEGELRDLTMTPPSNGHGALSARNSSQPSTANNGSNSFKSSAVPQTSPGQPRKGQNGSNTIEDINNNRNPTSHANRKVVIESNNSDDESMQDTNGTSNHYPKVSRKKNDISSASSSRMEDNEPSATNINNAADDTILRQLLPKNRRVTSGRRTTSAAGGIRKISGSIKK
On to B1, for which the binding result is “no binding (tested: 50 ug/ml)”.
